Experimental data from the supplement of paper PMC10849652.
This is one part of the list.

The chains behind the UniProt entries cited, without tags or fusion partners. Where a name states a change or a piece, a line headed by the entry shows the natural chain unless it says otherwise.
UniProt Q8NA19: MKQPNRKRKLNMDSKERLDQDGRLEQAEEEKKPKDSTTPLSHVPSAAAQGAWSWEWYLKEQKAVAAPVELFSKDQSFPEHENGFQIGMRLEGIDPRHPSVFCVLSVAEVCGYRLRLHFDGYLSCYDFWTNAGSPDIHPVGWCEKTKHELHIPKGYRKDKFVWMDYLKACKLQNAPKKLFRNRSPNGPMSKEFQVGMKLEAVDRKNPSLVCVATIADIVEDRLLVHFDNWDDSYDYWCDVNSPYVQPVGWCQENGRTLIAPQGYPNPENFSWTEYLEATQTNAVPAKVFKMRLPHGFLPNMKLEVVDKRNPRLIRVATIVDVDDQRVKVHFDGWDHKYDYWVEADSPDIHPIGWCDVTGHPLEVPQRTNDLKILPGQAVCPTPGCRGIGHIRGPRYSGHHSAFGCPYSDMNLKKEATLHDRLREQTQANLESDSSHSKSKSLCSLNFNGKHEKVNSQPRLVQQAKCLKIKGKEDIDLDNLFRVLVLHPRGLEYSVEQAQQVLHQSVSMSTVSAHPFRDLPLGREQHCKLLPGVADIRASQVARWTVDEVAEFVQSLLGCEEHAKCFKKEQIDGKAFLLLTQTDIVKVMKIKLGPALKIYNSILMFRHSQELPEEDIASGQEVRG
UniProt Q53G59: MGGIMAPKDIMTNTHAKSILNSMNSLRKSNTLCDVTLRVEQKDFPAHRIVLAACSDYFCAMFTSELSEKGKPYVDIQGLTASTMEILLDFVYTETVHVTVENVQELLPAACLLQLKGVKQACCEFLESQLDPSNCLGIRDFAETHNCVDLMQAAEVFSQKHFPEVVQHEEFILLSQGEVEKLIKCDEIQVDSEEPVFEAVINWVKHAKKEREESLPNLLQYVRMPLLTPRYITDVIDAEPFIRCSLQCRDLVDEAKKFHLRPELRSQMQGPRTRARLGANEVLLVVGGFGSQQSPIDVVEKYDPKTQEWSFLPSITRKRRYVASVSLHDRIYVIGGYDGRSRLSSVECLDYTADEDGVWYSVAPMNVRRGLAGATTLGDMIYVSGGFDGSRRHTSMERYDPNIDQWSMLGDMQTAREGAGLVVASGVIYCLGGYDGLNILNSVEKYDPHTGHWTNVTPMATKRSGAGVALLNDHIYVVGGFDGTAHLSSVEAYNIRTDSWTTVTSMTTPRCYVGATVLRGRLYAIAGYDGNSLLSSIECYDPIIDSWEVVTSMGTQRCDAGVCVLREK
UniProt Q9Y2U9: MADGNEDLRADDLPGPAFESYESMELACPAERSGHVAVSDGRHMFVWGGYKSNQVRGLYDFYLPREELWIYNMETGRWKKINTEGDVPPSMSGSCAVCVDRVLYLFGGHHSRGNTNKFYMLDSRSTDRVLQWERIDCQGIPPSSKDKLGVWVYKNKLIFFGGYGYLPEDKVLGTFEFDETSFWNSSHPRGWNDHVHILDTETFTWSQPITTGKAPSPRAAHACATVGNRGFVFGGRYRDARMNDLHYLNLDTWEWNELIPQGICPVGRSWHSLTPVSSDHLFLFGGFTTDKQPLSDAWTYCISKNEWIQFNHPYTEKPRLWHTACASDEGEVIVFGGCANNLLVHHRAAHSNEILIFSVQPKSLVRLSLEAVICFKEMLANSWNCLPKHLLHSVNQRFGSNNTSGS
UniProt Q6ZV70: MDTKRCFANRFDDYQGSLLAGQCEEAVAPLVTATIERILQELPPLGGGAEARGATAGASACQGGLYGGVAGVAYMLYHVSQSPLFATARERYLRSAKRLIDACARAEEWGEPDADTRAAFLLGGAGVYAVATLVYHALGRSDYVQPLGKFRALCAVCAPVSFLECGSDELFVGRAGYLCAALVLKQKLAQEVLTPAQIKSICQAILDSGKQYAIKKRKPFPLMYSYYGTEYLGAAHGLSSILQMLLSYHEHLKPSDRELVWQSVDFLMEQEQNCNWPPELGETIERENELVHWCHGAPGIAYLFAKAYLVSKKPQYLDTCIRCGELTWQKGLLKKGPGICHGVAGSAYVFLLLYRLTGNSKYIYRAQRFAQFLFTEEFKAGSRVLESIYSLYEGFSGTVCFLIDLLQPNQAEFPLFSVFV
UniProt O95235: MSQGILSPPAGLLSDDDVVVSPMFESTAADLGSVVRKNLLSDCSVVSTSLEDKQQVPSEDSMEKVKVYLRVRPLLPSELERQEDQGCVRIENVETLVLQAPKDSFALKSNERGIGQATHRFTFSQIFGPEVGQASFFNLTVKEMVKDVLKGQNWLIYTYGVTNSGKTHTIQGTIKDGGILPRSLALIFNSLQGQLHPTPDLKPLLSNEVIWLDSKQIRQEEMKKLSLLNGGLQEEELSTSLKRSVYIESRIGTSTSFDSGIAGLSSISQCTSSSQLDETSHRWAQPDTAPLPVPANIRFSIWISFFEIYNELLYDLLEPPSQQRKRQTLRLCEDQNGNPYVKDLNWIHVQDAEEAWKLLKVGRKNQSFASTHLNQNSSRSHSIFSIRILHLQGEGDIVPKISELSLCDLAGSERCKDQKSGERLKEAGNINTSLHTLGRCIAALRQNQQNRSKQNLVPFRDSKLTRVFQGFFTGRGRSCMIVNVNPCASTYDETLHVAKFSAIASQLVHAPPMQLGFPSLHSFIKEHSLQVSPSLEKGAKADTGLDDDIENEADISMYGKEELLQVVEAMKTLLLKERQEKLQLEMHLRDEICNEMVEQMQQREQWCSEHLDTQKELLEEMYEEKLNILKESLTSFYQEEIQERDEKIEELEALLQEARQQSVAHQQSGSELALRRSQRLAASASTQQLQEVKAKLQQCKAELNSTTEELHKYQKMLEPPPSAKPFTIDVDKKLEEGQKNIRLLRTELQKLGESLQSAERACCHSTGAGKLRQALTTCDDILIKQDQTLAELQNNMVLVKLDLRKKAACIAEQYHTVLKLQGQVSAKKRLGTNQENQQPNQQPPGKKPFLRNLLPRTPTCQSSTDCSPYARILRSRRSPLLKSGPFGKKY
UniProt O00139: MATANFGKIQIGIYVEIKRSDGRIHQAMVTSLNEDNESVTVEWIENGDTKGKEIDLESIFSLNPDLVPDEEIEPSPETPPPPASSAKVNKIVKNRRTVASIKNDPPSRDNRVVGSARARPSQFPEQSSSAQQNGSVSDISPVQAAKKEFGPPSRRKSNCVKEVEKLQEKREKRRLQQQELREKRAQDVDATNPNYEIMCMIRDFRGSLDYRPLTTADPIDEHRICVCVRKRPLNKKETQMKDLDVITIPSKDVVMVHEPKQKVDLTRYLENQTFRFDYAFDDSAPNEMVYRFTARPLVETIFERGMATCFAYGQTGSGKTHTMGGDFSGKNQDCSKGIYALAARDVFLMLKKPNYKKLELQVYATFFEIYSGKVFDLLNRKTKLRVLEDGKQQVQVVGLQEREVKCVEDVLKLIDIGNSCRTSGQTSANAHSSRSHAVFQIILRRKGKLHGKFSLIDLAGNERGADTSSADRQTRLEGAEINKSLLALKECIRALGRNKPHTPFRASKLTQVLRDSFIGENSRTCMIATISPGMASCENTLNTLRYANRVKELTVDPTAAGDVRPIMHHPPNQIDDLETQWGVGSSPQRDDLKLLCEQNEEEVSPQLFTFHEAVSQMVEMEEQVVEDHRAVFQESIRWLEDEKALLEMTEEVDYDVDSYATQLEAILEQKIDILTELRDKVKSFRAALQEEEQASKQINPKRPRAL
UniProt Q92845: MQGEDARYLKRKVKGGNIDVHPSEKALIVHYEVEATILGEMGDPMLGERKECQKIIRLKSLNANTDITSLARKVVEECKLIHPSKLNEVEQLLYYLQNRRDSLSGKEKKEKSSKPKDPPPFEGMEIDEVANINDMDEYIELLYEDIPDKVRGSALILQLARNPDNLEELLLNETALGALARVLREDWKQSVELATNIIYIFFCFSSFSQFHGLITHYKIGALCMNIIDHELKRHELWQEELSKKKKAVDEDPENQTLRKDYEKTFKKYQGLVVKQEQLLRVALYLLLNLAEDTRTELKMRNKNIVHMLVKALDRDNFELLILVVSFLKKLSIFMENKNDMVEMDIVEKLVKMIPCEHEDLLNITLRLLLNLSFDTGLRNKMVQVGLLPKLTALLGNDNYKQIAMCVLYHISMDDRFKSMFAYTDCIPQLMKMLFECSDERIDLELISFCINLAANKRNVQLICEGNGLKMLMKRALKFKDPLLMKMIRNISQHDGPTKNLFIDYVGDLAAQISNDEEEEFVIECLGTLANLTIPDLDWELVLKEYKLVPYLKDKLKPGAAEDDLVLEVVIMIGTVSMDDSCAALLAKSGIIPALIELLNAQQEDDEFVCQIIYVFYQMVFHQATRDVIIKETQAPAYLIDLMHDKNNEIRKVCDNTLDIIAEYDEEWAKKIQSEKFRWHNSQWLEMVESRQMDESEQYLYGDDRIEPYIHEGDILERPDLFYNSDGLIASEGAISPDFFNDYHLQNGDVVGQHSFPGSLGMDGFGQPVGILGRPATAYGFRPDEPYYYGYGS
UniProt Q9HCM3: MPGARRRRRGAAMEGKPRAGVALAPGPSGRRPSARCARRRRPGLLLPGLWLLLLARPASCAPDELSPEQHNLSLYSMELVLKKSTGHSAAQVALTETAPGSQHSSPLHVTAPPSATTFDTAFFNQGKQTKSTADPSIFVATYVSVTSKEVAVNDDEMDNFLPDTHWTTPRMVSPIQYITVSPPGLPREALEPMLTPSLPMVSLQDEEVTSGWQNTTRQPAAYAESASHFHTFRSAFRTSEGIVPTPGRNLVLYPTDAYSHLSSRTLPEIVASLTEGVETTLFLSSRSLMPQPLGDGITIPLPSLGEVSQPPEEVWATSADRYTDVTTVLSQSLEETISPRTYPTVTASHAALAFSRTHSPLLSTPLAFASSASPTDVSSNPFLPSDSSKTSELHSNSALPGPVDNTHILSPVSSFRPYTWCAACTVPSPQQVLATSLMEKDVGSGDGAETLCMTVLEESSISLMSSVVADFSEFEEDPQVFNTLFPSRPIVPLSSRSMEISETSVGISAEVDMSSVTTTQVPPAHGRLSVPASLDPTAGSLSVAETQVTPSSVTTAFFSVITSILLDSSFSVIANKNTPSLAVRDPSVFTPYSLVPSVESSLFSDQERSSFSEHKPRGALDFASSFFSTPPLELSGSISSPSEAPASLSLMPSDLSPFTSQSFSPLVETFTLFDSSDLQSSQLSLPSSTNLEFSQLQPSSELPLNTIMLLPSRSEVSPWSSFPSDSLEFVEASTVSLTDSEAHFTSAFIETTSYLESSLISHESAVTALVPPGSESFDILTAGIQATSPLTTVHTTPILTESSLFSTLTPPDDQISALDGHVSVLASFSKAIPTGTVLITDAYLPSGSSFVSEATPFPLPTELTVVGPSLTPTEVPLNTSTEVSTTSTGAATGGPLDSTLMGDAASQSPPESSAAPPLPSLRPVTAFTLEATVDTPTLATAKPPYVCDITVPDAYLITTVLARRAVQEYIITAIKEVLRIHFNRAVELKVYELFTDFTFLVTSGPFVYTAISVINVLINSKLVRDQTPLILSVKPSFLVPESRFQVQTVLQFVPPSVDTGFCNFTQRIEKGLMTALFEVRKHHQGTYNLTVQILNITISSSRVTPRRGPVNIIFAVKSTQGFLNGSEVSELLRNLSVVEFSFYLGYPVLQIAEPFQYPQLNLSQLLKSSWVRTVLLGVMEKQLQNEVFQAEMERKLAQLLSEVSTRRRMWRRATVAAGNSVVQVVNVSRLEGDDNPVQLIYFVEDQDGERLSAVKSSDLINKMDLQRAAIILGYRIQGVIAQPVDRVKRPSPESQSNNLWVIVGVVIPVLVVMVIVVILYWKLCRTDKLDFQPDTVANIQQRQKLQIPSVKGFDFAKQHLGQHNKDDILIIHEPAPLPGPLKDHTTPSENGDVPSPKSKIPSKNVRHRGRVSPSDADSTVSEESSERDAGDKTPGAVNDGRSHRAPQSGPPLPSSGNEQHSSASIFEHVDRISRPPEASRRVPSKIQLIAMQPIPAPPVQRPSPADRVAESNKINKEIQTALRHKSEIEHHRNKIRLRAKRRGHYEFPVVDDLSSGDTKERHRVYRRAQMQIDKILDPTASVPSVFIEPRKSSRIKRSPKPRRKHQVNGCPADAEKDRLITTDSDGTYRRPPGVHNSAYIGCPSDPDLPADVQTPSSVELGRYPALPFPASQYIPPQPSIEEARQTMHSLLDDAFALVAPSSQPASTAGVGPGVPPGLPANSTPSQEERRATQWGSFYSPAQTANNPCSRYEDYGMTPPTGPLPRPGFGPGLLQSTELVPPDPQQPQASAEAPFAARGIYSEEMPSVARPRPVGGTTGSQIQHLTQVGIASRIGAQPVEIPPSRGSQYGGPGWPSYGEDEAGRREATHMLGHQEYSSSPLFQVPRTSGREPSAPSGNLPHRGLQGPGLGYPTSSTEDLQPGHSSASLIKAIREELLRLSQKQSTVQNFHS
UniProt Q9GZZ8: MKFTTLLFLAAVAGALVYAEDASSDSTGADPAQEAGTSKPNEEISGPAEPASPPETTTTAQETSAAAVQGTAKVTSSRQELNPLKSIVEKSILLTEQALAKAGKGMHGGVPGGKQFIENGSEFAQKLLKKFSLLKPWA

How the values were obtained:
Experiment in all cases: log2 fold change, soluble protein after heating vs DMSO (PISA); higher = thermal stabilisation; K562 lysate, 10 uM; active = over 0.2 and 3.5 SD of the protein, either way, in both replicates (recomputed)
[1] = compound: CCCS(=O)(=O)Nc1ccc(F)c(C(=O)c2c[nH]c3ncc(-c4ccc(Cl)cc4)cc23)c1F [vemurafenib]
Summary of the method: (§1)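 Log-two fold change in thermal stability relative to solvent controls is reported from duplicates. For each sample, crude K562 extract from dounce-homogenised pellets in PBS pH 7.4 with 1 mM MgCl2, at 1 mg/mL protein, was treated with 10 μM compound for 30 min. Aliquots heated for 3 min across 48°C-58°C were pooled, brought to 0.5% NP-40 at 4°C and cleared at 21,000xg for 90 min. The supernatant was quantified by TMTpro 16plex LC-MS/MS with channel sums equalised.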

[2] = compound: CCCS(=O)(=O)Nc1ccc(F)c(C(=O)c2c[nH]c3ncc(Cl)cc23)c1F
Summary of the method: as §1

[3] = compound: CCN(CCCOc1ccc2c(Nc3cc(CC(=O)Nc4cccc(F)c4)[nH]n3)ncnc2c1)CCOP(=O)(O)O [barasertib]
Summary of the method: as §1

[4] = compound: CC[C@@H]1C(=O)N(C)c2cnc(Nc3ccc(C(=O)NC4CCN(C)CC4)cc3OC)nc2N1C1CCCC1
Summary of the method: as §1

[5] = compound: CC[C@@H]1C(=O)N(C)c2cnc(Nc3ccc(C(=O)N[C@H]4CC[C@H](N5CCN(CC6CC6)CC5)CC4)cc3OC)nc2N1C(C)C [volasertib]
Summary of the method: as §1

[6] = compound: CCn1c(C(=O)N(C2CC2)C2CC2)cc2c3c(ncn3C)c(Nc3cc(C)n(C)n3)nc21
Summary of the method: as §1

[7] = compound: CCn1cc(-c2ccnc3[nH]c(-c4cccc(CN(C)C)c4)cc23)c(-c2ccc(NC(=O)N(C)C)cc2)n1
Summary of the method: as §1

[8] = compound: CN1CCC(CNc2ccc3ncc(-c4cccc(OC(F)(F)F)c4)n3n2)CC1
Summary of the method: as §1

[9] = compound: CN1CCN(c2nc(C3=C(c4c[nH]c5ccccc45)C(=O)NC3=O)c3ccccc3n2)CC1 [sotrastaurin]
Summary of the method: as §1

[10] = compound: CN1CCN(CCOc2cc(OC3CCOCC3)c3c(Nc4c(Cl)ccc5c4OCO5)ncnc3c2)CC1 [saracatinib]
Summary of the method: as §1

With L3MBTL4 (UniProt Q8NA19) the log2 fold change [1] was inactive: 0.059, the log2 fold change [2] was inactive: -0.039 and the log2 fold change [3] was inactive: 0.113. The log2 fold change [4] was inactive: 0.152, the log2 fold change [5] was inactive: 0.038 and the log2 fold change [6] was inactive: -0.054. For the same target, the log2 fold change [7] was inactive: -0.191, the log2 fold change [8] was inactive: -0.05 and the log2 fold change [9] was inactive: -0.013.

With KIFC3 isoform 6 (UniProt Q9BVG8) the log2 fold change [1] was inactive: 0.052, the log2 fold change [3] was inactive: 0.025 and the log2 fold change [4] was inactive: 0.409. For the same target, the log2 fold change [7] was inactive: 0.284, the log2 fold change [8] was inactive: 0.256 and the log2 fold change [10] was inactive: 0.005. The log2 fold change [9] was inactive: 0.028.

In the case of KIF1C (UniProt O43896), the log2 fold change [1] is reported as inactive: 0.052, the log2 fold change [2] is reported as inactive: -0.026 and the log2 fold change [3] is reported as inactive: -0.107. The log2 fold change [4] was inactive: 0.411, the log2 fold change [5] was inactive: 0 and the log2 fold change [6] was inactive: 0.029. The log2 fold change [7] was inactive: -0.025, the log2 fold change [8] was inactive: 0.046 and the log2 fold change [9] was inactive: 0.014.

KLHL12 isoform 2 (UniProt Q53G59) was tested, and the log2 fold change [1] was inactive: 0.038, the log2 fold change [2] was inactive: 0.061 and the log2 fold change [3] was active: -0.413. The log2 fold change [5] was inactive: -0.045, the log2 fold change [6] was inactive: 0.118 and the log2 fold change [10] was inactive: 0.064. For the same target, the log2 fold change [9] was inactive: -0.045.

In the case of KLHDC2 (UniProt Q9Y2U9), the log2 fold change [1] is reported as inactive: 0.032 and the log2 fold change [9] is reported as inactive: 0.04.

In the case of LANCL3 (UniProt Q6ZV70), the log2 fold change [1] is reported as inactive: 0.106, the log2 fold change [3] is reported as inactive: -0.062 and the log2 fold change [4] is reported as inactive: -0.065. The log2 fold change [7] was inactive: 0.046 and the log2 fold change [8] was inactive: -0.044.

In the case of KLHL11 (UniProt Q9NVR0), the log2 fold change [1] is reported as inactive: 0.094, the log2 fold change [3] is reported as inactive: -0.011 and the log2 fold change [4] is reported as inactive: -0.027. For the same target, the log2 fold change [6] was inactive: 0.089, the log2 fold change [7] was inactive: -0.022 and the log2 fold change [8] was inactive: 0.053. For the same target, the log2 fold change [10] was inactive: 0.032 and the log2 fold change [9] was inactive: 0.038.

KIF20A (UniProt O95235) was tested, and the log2 fold change [1] was inactive: 0.047, the log2 fold change [3] was inactive: 0.004 and the log2 fold change [4] was inactive: -0.085. For the same target, the log2 fold change [6] was inactive: 0.105, the log2 fold change [7] was inactive: -0.03 and the log2 fold change [8] was inactive: 0.148. For the same target, the log2 fold change [10] was inactive: 0.014 and the log2 fold change [9] was inactive: 0.038.

With LAPTM4A (UniProt Q15012) the log2 fold change [1] was inactive: -0.05 and the log2 fold change [10] was inactive: 0.119.

With KIAA1586 (UniProt Q9HCI6) the log2 fold change [1] was inactive: 0.024, the log2 fold change [3] was inactive: -0.407 and the log2 fold change [6] was inactive: -0.056. For the same target, the log2 fold change [10] was inactive: -0.008.

KIF2A isoform 2 (UniProt O00139) was tested, and the log2 fold change [7] was inactive: 0.129 and the log2 fold change [8] was inactive: 0.316.

For KPNB1 (UniProt J3QKQ5), the log2 fold change [6] was inactive: -0.015.

In the case of KIFAP3 (UniProt Q92845), the log2 fold change [3] is reported as inactive: -0.237, the log2 fold change [4] is reported as inactive: 0.043 and the log2 fold change [6] is reported as inactive: 0.068. The log2 fold change [7] was inactive: -0.073, the log2 fold change [8] was inactive: 0.067 and the log2 fold change [10] was inactive: -0.014. For the same target, the log2 fold change [9] was inactive: 0.002.

For KLHL8 (UniProt Q9P2G9), the log2 fold change [6] was inactive: 0.029.

In the case of KIAA1549 (UniProt Q9HCM3), the log2 fold change [3] is reported as inactive: -0.072 and the log2 fold change [6] is reported as inactive: 0.155.

With KIF21A (UniProt H0YI78) the log2 fold change [2] was inactive: 0.017, the log2 fold change [3] was inactive: -0.198 and the log2 fold change [5] was inactive: -0.008. For the same target, the log2 fold change [10] was inactive: -0.151.

For KMT2B (UniProt Q9UMN6), the log2 fold change [4] was inactive: -0.1, the log2 fold change [10] was inactive: 0.081 and the log2 fold change [9] was inactive: -0.206.

With KLC1 isoform 10 (UniProt Q07866) the log2 fold change [3] was inactive: 0.238 and the log2 fold change [4] was inactive: 0.152.

With LACRT (UniProt Q9GZZ8) the log2 fold change [2] was inactive: -0.045 and the log2 fold change [5] was inactive: 0.233.

In the case of LAMB2 (UniProt P55268), the log2 fold change [4] is reported as inactive: -0.037 and the log2 fold change [10] is reported as inactive: -0.105.
